Laboratory results: PMC9001639
These are yes or no findings as the source states them, for the method shown. Binding seen in cells or lysates may run through a third protein. Sequences can lack the tags named with a protein. Blank lines part the entries; values can stand above or below the binder they belong to.

Key:
[1] = target: T1, HA-NEDD9 (human) (UniProt Q14511); experiment: co-IP; HEK293 cells co-overexpressing HA-NEDD9 and GFP-HK1 or GFP-HK2, collected after 24 h; lysed in PTY buffer; Protein A/G plus agarose beads with antibody to HA or to the hexokinases (or IgG control), 500 ug lysate, overnight at 4 °C; western blot; cells with or without dasatinib (SRC inhibitor)
T1 sequence: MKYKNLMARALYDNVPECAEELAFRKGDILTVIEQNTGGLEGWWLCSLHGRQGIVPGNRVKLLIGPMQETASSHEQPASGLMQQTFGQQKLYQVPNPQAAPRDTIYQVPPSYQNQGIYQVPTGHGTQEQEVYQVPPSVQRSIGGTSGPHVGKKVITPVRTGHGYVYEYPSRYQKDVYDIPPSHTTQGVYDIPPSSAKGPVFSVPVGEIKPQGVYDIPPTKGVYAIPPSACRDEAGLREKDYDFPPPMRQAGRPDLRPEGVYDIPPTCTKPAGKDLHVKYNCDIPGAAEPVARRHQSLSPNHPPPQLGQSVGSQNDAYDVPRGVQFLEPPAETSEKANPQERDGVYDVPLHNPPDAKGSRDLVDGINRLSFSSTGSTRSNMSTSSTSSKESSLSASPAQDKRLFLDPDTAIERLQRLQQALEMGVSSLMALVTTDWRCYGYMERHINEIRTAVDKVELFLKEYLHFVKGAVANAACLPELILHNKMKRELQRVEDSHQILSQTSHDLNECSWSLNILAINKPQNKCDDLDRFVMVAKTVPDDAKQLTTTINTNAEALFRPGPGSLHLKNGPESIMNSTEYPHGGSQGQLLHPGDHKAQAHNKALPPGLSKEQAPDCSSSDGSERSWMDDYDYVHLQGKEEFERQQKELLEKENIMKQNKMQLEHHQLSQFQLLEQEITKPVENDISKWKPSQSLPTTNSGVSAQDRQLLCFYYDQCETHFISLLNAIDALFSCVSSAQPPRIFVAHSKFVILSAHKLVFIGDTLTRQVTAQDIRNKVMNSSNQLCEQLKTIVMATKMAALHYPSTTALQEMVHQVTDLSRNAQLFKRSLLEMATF

[2] = target: T2, GFP-fused HK2 (UniProt P52789); experiment: as above
T2 sequence: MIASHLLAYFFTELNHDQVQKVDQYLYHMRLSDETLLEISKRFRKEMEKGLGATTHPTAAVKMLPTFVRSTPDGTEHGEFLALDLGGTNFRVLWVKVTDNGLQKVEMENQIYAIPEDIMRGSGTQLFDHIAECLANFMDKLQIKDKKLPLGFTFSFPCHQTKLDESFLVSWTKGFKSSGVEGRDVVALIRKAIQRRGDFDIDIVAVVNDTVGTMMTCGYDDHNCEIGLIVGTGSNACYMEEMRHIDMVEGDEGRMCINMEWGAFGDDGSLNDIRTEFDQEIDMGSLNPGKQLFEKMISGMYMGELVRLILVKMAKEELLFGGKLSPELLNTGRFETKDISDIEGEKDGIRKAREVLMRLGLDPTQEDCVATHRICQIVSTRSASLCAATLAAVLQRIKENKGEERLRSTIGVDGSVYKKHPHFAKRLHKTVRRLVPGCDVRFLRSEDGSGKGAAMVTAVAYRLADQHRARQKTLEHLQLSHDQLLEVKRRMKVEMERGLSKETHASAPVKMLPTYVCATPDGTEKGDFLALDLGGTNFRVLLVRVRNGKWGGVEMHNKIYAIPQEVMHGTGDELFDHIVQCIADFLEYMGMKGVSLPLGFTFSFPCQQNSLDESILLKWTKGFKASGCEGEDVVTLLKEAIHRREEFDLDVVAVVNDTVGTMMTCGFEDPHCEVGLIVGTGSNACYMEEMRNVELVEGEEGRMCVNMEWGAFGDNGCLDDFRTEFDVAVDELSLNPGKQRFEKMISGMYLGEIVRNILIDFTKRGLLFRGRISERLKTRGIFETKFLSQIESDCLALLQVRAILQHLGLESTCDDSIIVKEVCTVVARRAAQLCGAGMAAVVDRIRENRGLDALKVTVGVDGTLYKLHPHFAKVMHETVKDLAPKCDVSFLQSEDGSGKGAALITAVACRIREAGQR

- binding [1]: no binding
B1: GFP-fused HK2 (enzyme, UniProt P52789 1-917)
chain: T2 sequence

- binding [2]: no binding
B2: HA-NEDD9 (protein, UniProt Q14511 1-834)
chain: T1 sequence
